Experimental findings from PubChem BioAssay AID1347426 (Functional Genomics Laboratory (NCATS/FGL), 2020) are described below.

About 1,400 (4.5%) of roughly 31,000 sequences were called active.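 Rule for the calls: active = median seed-adjusted z-score above 1 or below -1; inactive = the rest.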 The list shows a part of the results.

The test is described as follows: Novel Modifiers of Survival Motor Neuron (SMN) Protein: Gene Identification via Genome-wide siRNA Screen.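 Note: luminescence tracks full-length SMN protein made from the SMN2 reporter.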 The conditions noted are these: HEK293T SMN2-luciferase reporter, siRNA knockdown, 72 h; actives lie on both sides. An excerpt: Spinal muscular atrophy (SMA) is the most common neuromuscular autosomal recessive disorder and one of the leading genetic causes of infant death. SMA results from mutations inducing loss of function or deletion in the survival of motor neuron-1 gene (SMN1), leading to deficiency of the survival motor neuron (SMN) protein. Although a second nearly identical gene, SMN2, is retained in humans, its expression primarily produces an aberrantly spliced isoform that is largely unstable and quickly degraded. We performed a genome-wide RNAi screen using a cell-based reporter assay to identify genes and pathways that modulate SMN protein stability. The screen identified over 200 genes that led to the greatest increase or decrease in luciferase expression.
Using HEK293T cells stably expressing a luciferase reporter that combines the promoter and splicing based cassettes in tandem with the major portion of the native SMN2 cDNA with luciferase, we performed a genome-wide RNAi screen to identify modulators of SMN protein levels. Luciferase is expressed when full-length SMN protein is generated with luminescence signal proportional to SMN protein levels. Our luciferase-based reporter assay was used to screen Ambion Silencer Select Human Druggable Genome siRNA library (10418 genes, 3 unique siRNAs per gene) using lipid-based reverse transfection.
Briefly, 1 pmol of each siRNA was spotted to a well of a 384-well plate (Corning, Corning, NY) and 20 microL of serum-free DMEM containing […] of Lipofectamine RNAiMax (Life Technologies, Carlsbad, CA) was then added to each well. Transfected cells were maintained at 37 degrees C in 5% CO2 for 72 hours, 20 microL of ONE-Glo Reagent (Promega) was added to wells for luciferase quantification. Raw luminescence reads were normalized to Ambion(R) Silencer(R) Negative Control #2 siRNA, then log10 transformed. A robust statistical measure of median absolute deviation (MAD) to standardize siRNA activities from each screen. Common Seed Analysis was used to help prioritize clean hits as opposed to those appearing to arise from seed based off-target effects. Candidate modulators were defined as the genes having a MAD score greater than 1.0 or less than -1.0.
Background: In a reporter assay the amount or activity of a reporter protein is the signal.
Regarding GAACUACAGAAUUCGGUAATT against LTA4H, the median seed-adjusted z-score is inactive: -0.742.
For the sequence CUAUGUACCGCUUCACUGATT against MMP9, the median seed-adjusted z-score is active: -1.15.
Take UAGCCUCUUUGGAUCCAUUTT against KIFC2: the median seed-adjusted z-score was inactive: 0.932.
On to GAAUAUGACUCUGCAAAGATT against PDLIM5, for which the median seed-adjusted z-score was inactive: 0.439.
Take GGAAGACGAUGGAUCGCAATT against PARP11: the median seed-adjusted z-score was inactive: 0.192.
With AGCUGCUACUGGAAGUCAATT against CBFA2T3, the median seed-adjusted z-score was inactive: -0.135.
As to GAUUACUGGUGCGAUGUUATT against L3MBTL4, the median seed-adjusted z-score was inactive: -0.189.
Under GAAUGCCGGUCGAUUCUAATT against KIT stands inactive: -0.686; under GACUUUCUACUAUGCGGAATT against MSRA, inactive: -0.0316.
For CCACGAACCUGCUUACAGATT against WNT1, the median seed-adjusted z-score is inactive: 0.
With GGAUUGACCUCACCCAGAATT against MAP3K14, the median seed-adjusted z-score is inactive: -0.0609.
Consider GCCUAAUUGCGGAACAUAUTT against ESCO1, for which the median seed-adjusted z-score is inactive: 0.755.
Turning to GGAGUUCAUGGGAACAUGATT against RBM28, the median seed-adjusted z-score was inactive: 0.649.
For the sequence GGAAUGAUCGACUGCCUGATT against SLC25A18, the median seed-adjusted z-score is inactive: -0.0227.
To UGAACGGCAUGAACACGUATT against FOXA2 belongs inactive: 0.883; to GAGCAGUUCGAACACCUUATT against RBM4B, inactive: -0.251; to CGGGAACACGUUUCAGGGATT against GPR157, inactive: 0.152.
Regarding GUGGAACAAUUGUAACAGATT against ETF1, the median seed-adjusted z-score is active: -1.12.
On to CAAGGUUGCUGAUCCCACATT against CBR1, for which the median seed-adjusted z-score was inactive: -0.6.
AGGUCAUGCUGAUCAGCGATT against ITFG2: the median seed-adjusted z-score was inactive: 0.165.
As to GCAAGGCCUUUGGACGCAUTT against WNT6, the median seed-adjusted z-score was inactive: 0.027.
For the sequence CACUGAUUCUGAAGGCGAATT against RPS6KA1, the median seed-adjusted z-score is inactive: 0.194.
With GGGAGGAAAUGACAUAACATT against AP1G1, the median seed-adjusted z-score was inactive: 0.0802.
Turning to CCCUCGUGAAGAACCUGAATT against NCK2, the median seed-adjusted z-score is inactive: -0.397.
GGUCAACCAGUGUACCCAATT against TCF7L2: the median seed-adjusted z-score is inactive: 0.189.
In the case of GCGAGAACAUGUUUACCUUTT against TARSL2, the median seed-adjusted z-score is inactive: 0.361.
As for GGAGUUACUCCAUUAACUATT against JARID1C, the median seed-adjusted z-score was inactive: 0.372.
To GGAAAAUGAUUUCAAUCCUTT against NEU1 belongs inactive: -0.425; to CAGUCUUCCUAGAUCGUUUTT against PLCB4, inactive: -0.521.
With CAGUGUCCCUAUGAAGGGATT against SRMS, the median seed-adjusted z-score is active: -1.58.
As to GAUCAAGAUUGAGUUCACATT against MYL3, the median seed-adjusted z-score is inactive: 0.212.
Consider GGUAAAGAAUCUUUCCGAATT against MYH13, for which the median seed-adjusted z-score is inactive: 0.612.
Consider GCAGUUCCUUCUUCGAGAATT against MGAT5, for which the median seed-adjusted z-score is inactive: 0.16.
For CUAUCACUGUCUCAAGUCATT against ITGA10, the median seed-adjusted z-score is inactive: 0.378.
Turning to GAAGUGCAUGGAUCCCUUUTT against WFDC8, the median seed-adjusted z-score was inactive: 0.0427.
On to CAACCUGCUCUACAGCAAATT against PRSS27, for which the median seed-adjusted z-score is active: 1.03.
For the sequence GGUGCGCUACUUCAUCGAUTT against PRDM12, the median seed-adjusted z-score is inactive: 0.245.
To UGCUCUCUGUUGCAUUGAATT against IAPP belongs inactive: -0.157; to CUCUCAUUCUAGAUCAUCATT against REPS1, inactive: 0.185.
To CAAGCUAACUCCUCCGGAATT against TSGA14 belongs inactive: 0.433.
For GAGUCCAGAUUACCACGAATT against CSAD, the median seed-adjusted z-score is inactive: -0.0681.
CAAGUAACAUUGUAGUCAATT against MAPK10: the median seed-adjusted z-score was inactive: -0.0114.
Consider CAAGCCUGAUUUCCACCUATT against DTD1, for which the median seed-adjusted z-score was active: -1.58.
Under GCGGUAAAGCGUUCCAUGUTT against PKMYT1 stands inactive: 0.65.
Consider GGUCCAUAUUGGUUAUCUUTT against GCH1, for which the median seed-adjusted z-score was inactive: 0.569.
To GCAGUUUCAGGGUAUGAAATT against LGMN belongs inactive: 0.391; to GCAUGCAGCCUUGAAGAUATT against CRYZL1, inactive: 0.0481; to GCAGUUAACACUCAAGGAATT against MKKS, active: 1.03.
To GGCUUGAAGUAUGGAAAAATT against QRICH1 belongs active: -1.04.
Turning to AGAUCUCCUUUCACCAAAATT against N6AMT1, the median seed-adjusted z-score was inactive: 0.166.
Under GGUCCGGUUUAUCACUAAATT against UBE2K stands inactive: 0.497.
To CGACCACGGCGAAGCAAUATT against TLX2 belongs inactive: -0.182.
To UCACAACUAUGACAUCUCATT against DDOST belongs inactive: -0.315; to GGAUGCCCACUGUAUCAUATT against MYST2, active: -1.46.
